Data from article PMC4347857, “Characterization of the Mycobacterial Acyl-CoA Carboxylase Holo Complexes Reveals Their Functional Expansion into Amino Acid Catabolism” (PLoS Pathogens, 2015).
These are yes or no findings as the source states them, for the method shown. For some assays here: In cells and extracts the contact can be indirect. Some binding calls cover weakened binding; strength is not graded here.

The chains behind the UniProt entries cited, without tags or fusion partners.
UniProt O86318: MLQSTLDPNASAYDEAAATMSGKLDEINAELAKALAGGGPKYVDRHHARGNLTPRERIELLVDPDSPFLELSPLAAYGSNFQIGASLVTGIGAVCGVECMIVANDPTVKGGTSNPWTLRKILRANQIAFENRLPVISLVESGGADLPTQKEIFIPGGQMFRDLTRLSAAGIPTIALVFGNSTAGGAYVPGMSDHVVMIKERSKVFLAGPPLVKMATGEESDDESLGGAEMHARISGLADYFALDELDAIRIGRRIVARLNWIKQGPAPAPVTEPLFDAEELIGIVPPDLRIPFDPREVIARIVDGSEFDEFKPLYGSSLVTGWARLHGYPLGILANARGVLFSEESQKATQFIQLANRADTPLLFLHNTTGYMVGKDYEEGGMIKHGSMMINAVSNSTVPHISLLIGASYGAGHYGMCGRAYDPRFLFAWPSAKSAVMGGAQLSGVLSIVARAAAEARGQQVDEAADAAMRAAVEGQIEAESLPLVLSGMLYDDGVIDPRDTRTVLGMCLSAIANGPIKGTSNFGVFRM
UniProt A5U114: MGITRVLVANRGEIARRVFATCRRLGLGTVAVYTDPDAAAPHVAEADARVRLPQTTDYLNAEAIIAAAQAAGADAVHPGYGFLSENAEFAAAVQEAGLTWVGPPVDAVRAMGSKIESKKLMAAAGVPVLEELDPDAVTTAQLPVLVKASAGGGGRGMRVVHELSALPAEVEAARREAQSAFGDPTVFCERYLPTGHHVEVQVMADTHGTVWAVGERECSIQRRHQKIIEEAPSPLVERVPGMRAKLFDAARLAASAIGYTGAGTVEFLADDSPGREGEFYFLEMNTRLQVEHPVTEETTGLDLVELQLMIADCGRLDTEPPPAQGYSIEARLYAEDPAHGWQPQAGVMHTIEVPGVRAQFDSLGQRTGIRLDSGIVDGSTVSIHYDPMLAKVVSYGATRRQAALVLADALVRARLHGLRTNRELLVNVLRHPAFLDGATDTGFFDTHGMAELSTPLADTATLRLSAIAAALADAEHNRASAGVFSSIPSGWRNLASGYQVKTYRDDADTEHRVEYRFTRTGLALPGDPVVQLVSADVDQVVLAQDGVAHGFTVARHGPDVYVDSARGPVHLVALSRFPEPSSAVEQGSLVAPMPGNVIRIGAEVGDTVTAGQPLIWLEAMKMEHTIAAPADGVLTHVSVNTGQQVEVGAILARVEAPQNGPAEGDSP

Assays:
[1] = biological target: M. tuberculosis AccD2 (RV0974c), His-tagged (M. tuberculosis) (UniProt O86318); assay: SEC; both purified
[2] = biological target: M. tuberculosis AccD2 (RV0974c), His-tagged (M. tuberculosis) (UniProt O86318); assay: pull-down

With “M. tuberculosis AccA2 (Rv0973c) (from UniProt A5U114 1-667)” the binding [1] was “binds” and the binding [2] was “binds”.
